Patent publication US8772449B2, “Cell-penetrating peptides” (Toray Industries, Inc., priority 2009, dated 2014)
Not every detail of the peptide structures is certain; ends, links or a residue may be inferred. For some of these results: At least one read-out could not be matched to a standard name with certainty. Some of these results come from one statement about several compounds together. Ends that are not written are not given here.

Tests used:
[1] = Intestinal administration of insulin with peptide (ileal loop) to rats; type: in vivo; conditions: Example 8, insulin 50 IU/kg with 0.5 mM peptide, male SD rat, FIG. 9
Protocol: A silicone tube was […] cm distant from the ileocecal junction toward the ileum, and a feeding needle was inserted at a position about 10 cm upward therefrom. Further, sutures were passed through an area of 6 cm between these. From the feeding needle, 20 ml of phosphate buffered saline (PBS) at pH 7.4 prewarmed to 37° C. was fed at a flow rate of 5 ml/min. to allow discharging of the contents, and the silicone tube was plugged, followed by administering 1 ml of PBS prewarmed to 37° C. from the feeding needle and keeping it retained for 30 minutes. After the administration, the feeding needle was quickly plugged and the intestinal tract was returned into the abdominal cavity, followed by closing the site of incision with a clip and allowing the rat to keep still. […] The rat during the experiment was fixed on its back on a hot plate kept at 37° C. by a hot-water circulating pump to regulate the body temperature. […] Also for rats to which the same quantity of the insulin solution alone was subcutaneously administered, the blood collection and the measurement were carried out in the same manner.

[2] = tested on: HeLa cells; experiment: Evaluation of promotion of insulin transfer into cells (rhodamine-labeled insulin incorporated, fluorescence intensity of lysate); type: cell-based; conditions: Example 10, peptides whose amino termini are not labeled, incubation 5 hours, FIG. 13
Protocol: In DMEM medium supplemented with 10% FBS, 0.2 ml of HeLa cells were plated on a 96-well glass bottom plate, and the cells were cultured at 37° C. for 48 to 72 hours to allow the cells to adhere to the bottom surface.
The rhodamine-labeled insulin was prepared by the following method. […] To the resulting solution, 4 mg of NHS-rhodamine (Pierce) dissolved in 0.5 ml of DMSO was added, and the reaction was allowed to proceed at room temperature overnight.
Further, the amount of fluorescein incorporated into the cells was measured by the same method as in Example 1.

[3] = Intranasal administration of insulin with peptide to rats (blood glucose, plasma insulin, bioavailability, AUC); conditions: for intranasal absorption of insulin (AUC of plasma insulin), compared to insulin alone: Example 11, insulin 1 IU/kg with 0.5 mM peptide, FIG. 14

| Sequence | blood glucose level after intestinal administration, compared to insulin alone [1] | rhodamine-labeled insulin incorporated into the cells, of the amount added [2] | blood glucose level after intranasal administration ([3]; Example 4, insulin 1 IU/kg mixed with 0.5 mM peptide, male SD rat, FIG. 4) | bioavailability of insulin, compared with known cell-penetrating peptides of SEQ ID NOs:7 and 8 ([3]; Example 5, insulin 1 IU/kg with 0.5 mM peptide, rats, calculated by comparison with subcutaneous insulin, FIG. 6) | intranasal absorption of insulin (AUC of plasma insulin), compared to insulin alone ([3]; rats) |
| --- | --- | --- | --- | --- | --- |
| RWFKIQMQIRRWKNKK [SEQ ID NO:1, R W F K I Q M Q I R R W K N K K] | evident decrease | not less than 0.7% | decrease in the blood glucose level | significantly higher | significantly higher |
| KWFKIQMQIRRWKNKR [SEQ ID NO:10, K W F K I Q M Q I R R W K N K R] |  | not less than 0.7% |  |  | significantly higher |
